Consider 37 compounds from the supplement of paper PMC9938546.

Molecules are shown by their SMILES. Where a name gives a salt, the structure may show the parent alone. The list shows a part of the results. Plates or batches differ in their baseline, so values are only roughly comparable.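 HCT116-GFP, a KRAS-mutant, microsatellite-unstable human colorectal cancer line, constantly expresses green fluorescent protein; immune cells were from healthy donors. Cancer cell survival was tracked by live-cell imaging of green fluorescence, and activated immune cells by themselves reduced survival to roughly half.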

For this experiment, the system named is HCT116-GFP. Description: HCT116-GFP viability (GFP intensity) relative to untreated HCT116-GFP monoculture control, co-culture with activated PBMCs; higher = less cancer cell killing. As to conditions: culture: co-culture with anti-CD3/IL2 activated PBMCs 1:1; 10 µM; 72 h.
As to `Oc1cc(Cl)ccc1Oc1ccc(Cl)cc1Cl` [Triclosan], the HCT116-GFP viability came out at 19.7%.

For `COc1ccc(CCN)cc1OC` [Homoveratrylamine], the HCT116-GFP viability is 66.7%.

`CCCN1C[C@H](CSC)C[C@@H]2c3cccc4[nH]cc(c34)C[C@H]21` [Pergolide mesylate] displayed an HCT116-GFP viability of 55.6%.

For the compound `CCC(=O)O[C@@](Cc1ccccc1)(c1ccccc1)[C@@H](C)CN(C)C` [Levopropoxyphene napsylate], the HCT116-GFP viability is 51.1%.

Compound `CC[C@@]1(O)C(=O)OCc2c1cc1n(c2=O)Cc2cc3ccccc3nc2-1` [Camptothecine (S,+)] showed an HCT116-GFP viability of 3.5%.

`COc1cccc(C2(O)CCCCC2CN(C)C)c1` (configuration not stated) [Tramadol hydrochloride] returned an HCT116-GFP viability of 90.2%.

In turn, `CC(CCc1ccccc1)NC(C)C(O)c1ccc(O)cc1` (configuration not stated) [Nylidrin] gave an HCT116-GFP viability of 64.1%.

The compound `CC(=O)OC1CN2CCC1CC2` (configuration not stated) [Aceclidine Hydrochloride] showed an HCT116-GFP viability of 41.5%.

`c1ccc2nc(N3CCNCC3)ccc2c1` [Quipazine dimaleate salt] yielded an HCT116-GFP viability of 63%.

On to `C[N+](C)(C)CCCCCCCCCC[N+](C)(C)C` [Decamethonium bromide], for which the HCT116-GFP viability came to 30.7%.

`CN1C[C@H](C(=O)N[C@]2(C)O[C@@]3(O)[C@@H]4CCCN4C(=O)[C@H](Cc4ccccc4)N3C2=O)C[C@@H]2c3cccc4[nH]cc(c34)C[C@H]21` [Dihydroergotamine tartrate] had an HCT116-GFP viability of 77.2%.

Compound `C[N+]1(C)[C@@H]2CC[C@H]1C[C@@H](OC(=O)C(CO)c1ccccc1)C2` (some centres not stated) [Methylatropine nitrate] returned an HCT116-GFP viability of 77%.

Regarding `CCN[C@@H](C)Cc1cccc(C(F)(F)F)c1` [Dexfenfluramine hydrochloride], the HCT116-GFP viability amounted to 45%.

The compound `C[N+]1(C)CCOC(O)(c2ccc(-c3ccc(C4(O)C[N+](C)(C)CCO4)cc3)cc2)C1` (configuration not stated) [Hemicholinium bromide] displayed an HCT116-GFP viability of 49.1%.

Compound `CC[C@H](C)[C@H]1O[C@]2(C=C[C@@H]1C)C[C@@H]1C[C@@H](C/C=C(\C)[C@@H](O[C@H]3C[C@H](OC)[C@@H](O[C@H]4C[C@H](OC)[C@@H](O)[C@H](C)O4)[C@H](C)O3)[C@@H](C)/C=C/C=C3\CO[C@@H]4[C@H](O)C(C)=C[C@@H](C(=O)O1)[C@]34O)O2.CO[C@H]1C[C@H](O[C@H]2[C@H](C)O[C@@H](O[C@@H]3/C(C)=C/C[C@@H]4C[C@@H](C[C@]5(C=C[C@H](C)[C@@H](C(C)C)O5)O4)OC(=O)[C@@H]4C=C(C)[C@@H](O)[C@H]5OC/C(=C\C=C\[C@@H]3C)[C@]54O)C[C@@H]2OC)O[C@@H](C)[C@@H]1O` [Avermectin B1] had an HCT116-GFP viability of 25.9%.

`C[C@]12CCC(=O)C=C1CC[C@@H]1[C@@H]2C(=O)C[C@]2(C)C(=O)CC[C@@H]12` [Adrenosterone] had an HCT116-GFP viability of 78.3%.

The compound `COc1ccc(C(=O)N2CCCC2=O)cc1` [Aniracetam] returned an HCT116-GFP viability of 46.3%.

Take `CC[C@@H](C(N)=O)N1CCCC1=O` [Levetiracetam]: the HCT116-GFP viability was found to be 43.9%.

Turning to `O=c1[nH]c2ccccc2n1CCCN1CCC(n2c(=O)[nH]c3cc(Cl)ccc32)CC1` [Domperidone], the HCT116-GFP viability stood at 61.5%.

Take `O=C([O-])c1ccccc1-c1c2cc(Br)c(=O)cc-2oc2[c]([Hg+])c([O-])c(Br)cc12.[Na+].[Na+].[OH-]` [Merbromin]: the HCT116-GFP viability was 81.1%.

The compound `CC(C)[N+](C)(CCC(C(N)=O)(c1ccccc1)c1ccccc1)C(C)C` [Isopropamide iodide] had an HCT116-GFP viability of 84.2%.

Turning to `C#C[C@]1(O)CC[C@H]2[C@@H]3CCC4=CC(=O)CC[C@]4(C)[C@H]3CC[C@@]21C` [Ethisterone], the HCT116-GFP viability stood at 42.2%.

`CC(C)CC(N(C)C)C1(c2ccc(Cl)cc2)CCC1` (configuration not stated) [Sibutramine hydrochloride] came in with an HCT116-GFP viability of 56.3%.

`S=C(NC1CCCCC1)N1CCC(c2cnc[nH]2)CC1` [Thioperamide maleate] returned an HCT116-GFP viability of 60%.

As to `COc1ccc2c(c1)[C@]13CCCC[C@@H]1[C@H](C2)N(C)CC3` [Dextromethorphan hydrobromide monohydrate], the HCT116-GFP viability worked out at 46.7%.

`C=CC[C@]1(O)CC[C@H]2[C@@H]3CCC4=CC(=O)CCC4=C3C=C[C@@]21C` [Altrenogest] came in with an HCT116-GFP viability of 37.9%.

`CC(Cc1ccc(O)cc1)NCC(O)c1cc(O)cc(O)c1` (configuration not stated) [Fenoterol hydrobromide] registered an HCT116-GFP viability of 53.6%.

Regarding `C1CCc2nnnn2CC1` [Pentylenetetrazole], the HCT116-GFP viability was 31.1%.

Compound `CNCC(O)c1ccc(O)cc1` (racemic) [(+,-)-Synephrine] came in with an HCT116-GFP viability of 84.9%.

In turn, `C[C@]12CC[C@@H](O)C[C@@H]1CC[C@@H]1[C@@H]2CC[C@]2(C)C(=O)CC[C@@H]12` [Androsterone] showed an HCT116-GFP viability of 34.2%.

For `O=[N+]([O-])O[C@@H]1CO[C@H]2[C@@H]1OC[C@@H]2O` [Isosorbide mononitrate], the HCT116-GFP viability stood at 40.5%.

The compound `CC(C)N(CCC(C(N)=O)(c1ccccc1)c1ccccn1)C(C)C` (configuration not stated) [Disopyramide] showed an HCT116-GFP viability of 42.5%.

In turn, `C[C@H](N)[C@H](O)c1ccc(O)c(O)c1` [Levonordefrin] registered an HCT116-GFP viability of 82.6%.

Consider `CN1[C@@H]2CC[C@H]1C[C@@H](OC(=O)[C@H](CO)c1ccccc1)C2` [Hyoscyamine (L)], for which the HCT116-GFP viability was 56%.

`CN[C@@H]1C[C@@H](c2ccc(Cl)c(Cl)c2)c2ccccc21` [Indatraline hydrochloride]: the HCT116-GFP viability is 36%.

`COc1ccc(CN2CCNCC2)c(OC)c1OC` [Trimetazidine dihydrochloride] displayed an HCT116-GFP viability of 46.2%.

The compound `C[C@]12CC[C@H]3[C@@H](CCC4=CC(=O)CC[C@@H]43)[C@@H]1CC[C@@H]2O` [Nandrolone] returned an HCT116-GFP viability of 49.3%.
